From the supplement of paper PMC10849652
This is one part of the list.

Chains of the proteins cited; added tags and fusions are not shown. Lines headed by an entry give the natural chain unless they say otherwise; changes in a name come on top.
UniProt P13747, whole entry, looked up: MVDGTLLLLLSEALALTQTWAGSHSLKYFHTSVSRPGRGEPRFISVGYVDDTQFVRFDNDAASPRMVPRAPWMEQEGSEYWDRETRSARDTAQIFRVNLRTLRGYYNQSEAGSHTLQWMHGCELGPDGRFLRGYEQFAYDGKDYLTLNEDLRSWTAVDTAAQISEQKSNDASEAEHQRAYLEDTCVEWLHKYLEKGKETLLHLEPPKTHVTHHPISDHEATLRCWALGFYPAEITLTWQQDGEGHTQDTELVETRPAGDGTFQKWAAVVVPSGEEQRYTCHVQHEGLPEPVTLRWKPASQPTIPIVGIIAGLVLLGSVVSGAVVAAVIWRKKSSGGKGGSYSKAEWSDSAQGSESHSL
UniProt P17096: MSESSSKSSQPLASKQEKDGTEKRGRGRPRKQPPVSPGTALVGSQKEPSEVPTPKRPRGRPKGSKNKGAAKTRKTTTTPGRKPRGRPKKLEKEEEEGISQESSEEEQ
UniProt Q14469: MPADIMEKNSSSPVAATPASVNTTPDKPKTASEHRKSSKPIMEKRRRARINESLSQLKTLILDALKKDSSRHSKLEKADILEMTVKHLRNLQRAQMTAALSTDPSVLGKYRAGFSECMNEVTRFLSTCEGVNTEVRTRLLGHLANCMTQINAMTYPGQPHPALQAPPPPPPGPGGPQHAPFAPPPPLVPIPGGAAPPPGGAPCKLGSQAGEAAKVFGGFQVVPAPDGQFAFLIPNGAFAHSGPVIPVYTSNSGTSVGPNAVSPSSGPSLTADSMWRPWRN
UniProt Q9UJC3, whole entry, looked up: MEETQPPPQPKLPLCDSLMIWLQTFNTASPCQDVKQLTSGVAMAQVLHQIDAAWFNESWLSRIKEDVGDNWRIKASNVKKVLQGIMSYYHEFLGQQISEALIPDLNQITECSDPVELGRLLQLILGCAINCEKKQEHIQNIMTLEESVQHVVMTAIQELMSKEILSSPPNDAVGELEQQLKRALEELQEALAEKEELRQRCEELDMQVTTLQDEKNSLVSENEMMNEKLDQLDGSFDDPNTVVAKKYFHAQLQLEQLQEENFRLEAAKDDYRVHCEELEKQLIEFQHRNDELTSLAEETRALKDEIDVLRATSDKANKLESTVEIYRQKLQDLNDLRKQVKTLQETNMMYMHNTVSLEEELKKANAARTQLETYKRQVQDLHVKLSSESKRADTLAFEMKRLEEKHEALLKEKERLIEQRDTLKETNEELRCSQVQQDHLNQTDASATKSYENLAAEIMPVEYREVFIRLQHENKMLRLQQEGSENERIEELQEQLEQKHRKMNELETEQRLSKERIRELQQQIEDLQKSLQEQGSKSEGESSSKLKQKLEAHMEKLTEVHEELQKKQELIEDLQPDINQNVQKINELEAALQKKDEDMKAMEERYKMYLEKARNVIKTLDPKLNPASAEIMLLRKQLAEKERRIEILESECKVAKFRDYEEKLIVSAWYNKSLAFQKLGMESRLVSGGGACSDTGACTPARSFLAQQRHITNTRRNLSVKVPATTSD
UniProt Q04756: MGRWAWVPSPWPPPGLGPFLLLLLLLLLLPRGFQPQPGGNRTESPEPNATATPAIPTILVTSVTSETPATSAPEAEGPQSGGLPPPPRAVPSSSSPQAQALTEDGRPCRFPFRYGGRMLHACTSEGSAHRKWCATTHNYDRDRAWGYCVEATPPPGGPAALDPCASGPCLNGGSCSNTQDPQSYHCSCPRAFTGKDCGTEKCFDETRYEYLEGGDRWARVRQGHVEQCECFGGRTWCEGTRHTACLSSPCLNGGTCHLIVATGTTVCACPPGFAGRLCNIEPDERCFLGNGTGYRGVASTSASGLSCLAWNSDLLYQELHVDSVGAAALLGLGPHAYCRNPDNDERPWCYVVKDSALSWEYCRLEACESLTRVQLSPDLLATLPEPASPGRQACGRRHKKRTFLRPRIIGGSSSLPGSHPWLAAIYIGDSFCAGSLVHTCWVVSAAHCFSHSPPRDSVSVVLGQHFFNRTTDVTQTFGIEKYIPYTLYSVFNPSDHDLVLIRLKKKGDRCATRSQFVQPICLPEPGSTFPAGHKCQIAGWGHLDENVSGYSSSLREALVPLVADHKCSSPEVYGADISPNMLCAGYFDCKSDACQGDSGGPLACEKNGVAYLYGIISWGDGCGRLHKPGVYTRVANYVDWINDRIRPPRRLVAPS
UniProt P07910: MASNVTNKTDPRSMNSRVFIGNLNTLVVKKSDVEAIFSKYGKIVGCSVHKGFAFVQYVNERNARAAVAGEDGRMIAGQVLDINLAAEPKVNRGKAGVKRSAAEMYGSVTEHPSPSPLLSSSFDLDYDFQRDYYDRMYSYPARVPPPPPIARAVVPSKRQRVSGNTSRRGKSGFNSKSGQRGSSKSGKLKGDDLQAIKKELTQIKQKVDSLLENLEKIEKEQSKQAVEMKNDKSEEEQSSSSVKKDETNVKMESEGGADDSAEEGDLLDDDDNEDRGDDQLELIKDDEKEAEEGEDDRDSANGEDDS
UniProt Q9BQA5: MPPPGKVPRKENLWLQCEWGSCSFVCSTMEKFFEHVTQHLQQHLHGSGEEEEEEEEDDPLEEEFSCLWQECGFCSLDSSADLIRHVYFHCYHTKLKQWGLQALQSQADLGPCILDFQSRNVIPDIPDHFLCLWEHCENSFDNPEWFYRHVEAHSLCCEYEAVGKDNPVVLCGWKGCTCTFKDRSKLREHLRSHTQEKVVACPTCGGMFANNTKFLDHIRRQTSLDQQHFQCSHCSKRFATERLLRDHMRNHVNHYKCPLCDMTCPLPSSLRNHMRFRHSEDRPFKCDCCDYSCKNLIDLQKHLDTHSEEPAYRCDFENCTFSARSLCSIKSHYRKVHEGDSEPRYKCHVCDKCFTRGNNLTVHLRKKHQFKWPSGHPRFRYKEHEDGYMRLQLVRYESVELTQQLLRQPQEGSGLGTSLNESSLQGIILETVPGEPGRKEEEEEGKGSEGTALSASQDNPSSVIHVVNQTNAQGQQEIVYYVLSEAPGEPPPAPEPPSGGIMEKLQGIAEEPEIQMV
UniProt P15428: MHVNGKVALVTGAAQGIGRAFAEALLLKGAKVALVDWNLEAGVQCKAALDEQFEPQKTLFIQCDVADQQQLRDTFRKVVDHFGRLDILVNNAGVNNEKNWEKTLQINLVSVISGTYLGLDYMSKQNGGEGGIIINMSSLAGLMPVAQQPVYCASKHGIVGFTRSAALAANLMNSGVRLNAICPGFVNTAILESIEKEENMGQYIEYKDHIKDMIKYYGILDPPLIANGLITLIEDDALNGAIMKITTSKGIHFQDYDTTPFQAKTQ
UniProt Q9Y241: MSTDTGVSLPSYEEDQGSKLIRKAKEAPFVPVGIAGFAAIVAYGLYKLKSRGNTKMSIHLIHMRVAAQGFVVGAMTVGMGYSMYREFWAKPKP
UniProt P00738: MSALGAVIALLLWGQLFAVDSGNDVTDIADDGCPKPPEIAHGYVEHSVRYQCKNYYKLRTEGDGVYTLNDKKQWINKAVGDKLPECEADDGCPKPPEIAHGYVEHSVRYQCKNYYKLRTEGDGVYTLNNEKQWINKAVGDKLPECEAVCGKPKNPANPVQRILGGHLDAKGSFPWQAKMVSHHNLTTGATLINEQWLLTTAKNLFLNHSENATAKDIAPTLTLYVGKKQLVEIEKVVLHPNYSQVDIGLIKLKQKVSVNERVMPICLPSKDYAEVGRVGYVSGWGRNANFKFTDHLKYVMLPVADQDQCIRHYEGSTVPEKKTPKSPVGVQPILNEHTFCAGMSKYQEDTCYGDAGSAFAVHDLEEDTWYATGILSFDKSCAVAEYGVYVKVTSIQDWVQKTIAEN
UniProt A6NHT5: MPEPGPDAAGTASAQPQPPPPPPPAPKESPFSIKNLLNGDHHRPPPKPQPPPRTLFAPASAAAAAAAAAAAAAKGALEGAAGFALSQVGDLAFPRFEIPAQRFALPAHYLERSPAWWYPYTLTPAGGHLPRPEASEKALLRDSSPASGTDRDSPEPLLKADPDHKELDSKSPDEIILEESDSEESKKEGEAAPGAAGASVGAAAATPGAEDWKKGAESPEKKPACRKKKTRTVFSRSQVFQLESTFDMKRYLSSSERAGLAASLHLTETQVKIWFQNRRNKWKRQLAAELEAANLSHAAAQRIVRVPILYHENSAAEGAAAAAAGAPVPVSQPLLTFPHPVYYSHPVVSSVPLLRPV
UniProt Q12766: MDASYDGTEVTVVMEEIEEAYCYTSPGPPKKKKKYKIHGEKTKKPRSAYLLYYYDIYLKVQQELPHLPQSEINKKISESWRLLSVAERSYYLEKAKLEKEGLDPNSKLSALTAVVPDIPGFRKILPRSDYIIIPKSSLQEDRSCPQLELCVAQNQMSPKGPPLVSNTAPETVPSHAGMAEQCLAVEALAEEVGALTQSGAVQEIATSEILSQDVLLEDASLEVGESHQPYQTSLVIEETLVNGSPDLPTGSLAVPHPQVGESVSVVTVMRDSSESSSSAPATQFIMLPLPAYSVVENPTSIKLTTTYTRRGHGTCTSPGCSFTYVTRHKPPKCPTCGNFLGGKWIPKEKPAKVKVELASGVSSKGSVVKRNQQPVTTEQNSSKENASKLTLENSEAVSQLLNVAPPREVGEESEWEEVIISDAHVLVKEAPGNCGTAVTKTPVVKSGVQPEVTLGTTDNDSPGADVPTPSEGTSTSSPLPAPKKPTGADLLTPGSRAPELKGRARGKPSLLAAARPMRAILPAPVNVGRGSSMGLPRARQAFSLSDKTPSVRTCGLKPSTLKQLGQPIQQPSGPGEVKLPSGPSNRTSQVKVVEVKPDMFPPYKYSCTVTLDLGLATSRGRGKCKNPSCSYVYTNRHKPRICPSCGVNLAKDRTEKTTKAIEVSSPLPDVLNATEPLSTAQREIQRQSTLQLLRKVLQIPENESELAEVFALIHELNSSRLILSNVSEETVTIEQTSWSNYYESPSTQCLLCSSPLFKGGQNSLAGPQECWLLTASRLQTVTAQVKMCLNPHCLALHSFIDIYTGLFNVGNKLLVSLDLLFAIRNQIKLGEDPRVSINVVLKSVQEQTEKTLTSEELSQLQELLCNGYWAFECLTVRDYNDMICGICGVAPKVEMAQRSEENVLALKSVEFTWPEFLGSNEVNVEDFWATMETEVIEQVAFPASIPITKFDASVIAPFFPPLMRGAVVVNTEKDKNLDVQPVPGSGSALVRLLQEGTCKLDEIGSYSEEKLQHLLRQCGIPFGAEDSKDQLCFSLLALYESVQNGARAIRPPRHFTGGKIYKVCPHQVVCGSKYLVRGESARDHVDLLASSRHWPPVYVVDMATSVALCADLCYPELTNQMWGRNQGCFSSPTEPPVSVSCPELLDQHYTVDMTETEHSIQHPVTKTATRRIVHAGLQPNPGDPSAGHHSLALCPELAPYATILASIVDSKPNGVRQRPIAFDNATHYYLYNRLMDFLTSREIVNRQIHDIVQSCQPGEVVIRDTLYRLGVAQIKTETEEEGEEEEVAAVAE
UniProt O60243: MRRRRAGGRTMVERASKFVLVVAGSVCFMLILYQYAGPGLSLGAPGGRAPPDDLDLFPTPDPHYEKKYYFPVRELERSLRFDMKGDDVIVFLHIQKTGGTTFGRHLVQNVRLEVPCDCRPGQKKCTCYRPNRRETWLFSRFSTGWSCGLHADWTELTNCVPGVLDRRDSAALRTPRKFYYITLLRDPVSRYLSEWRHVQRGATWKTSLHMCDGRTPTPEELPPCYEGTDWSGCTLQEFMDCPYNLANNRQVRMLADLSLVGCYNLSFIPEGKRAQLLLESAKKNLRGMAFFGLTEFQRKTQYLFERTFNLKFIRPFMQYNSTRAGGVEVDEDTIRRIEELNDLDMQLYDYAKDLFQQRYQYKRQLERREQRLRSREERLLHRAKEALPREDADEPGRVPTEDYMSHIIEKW

Key:
Assay in all cases: log2 fold change, soluble protein after heating vs DMSO (PISA); higher = thermal stabilisation; K562 lysate, 10 uM; active = over 0.2 and 3.5 SD of the protein, either way, in both replicates (recomputed)
[1] = compound: CC[C@@H]1C(=O)N(C)c2cnc(Nc3ccc(C(=O)NC4CCN(C)CC4)cc3OC)nc2N1C1CCCC1
How it was run: (§1)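 Thermal stability, expressed as log-two fold change relative to solvent controls, is given from duplicates. Crude K562 extract in PBS pH 7.4 with 1 mM MgCl2, at 1 mg/mL protein, was treated with 10 μM compound for 30 min and heated in aliquots for 3 min across 48°C-58°C. After pooling, adjustment to 0.5% NP-40 at 4°C and centrifugation at 21,000xg for 90 min, supernatant protein was measured by TMTpro 16plex LC-MS/MS with channel sums equalised.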

[2] = compound: CNC(=O)C1=CC=CC=C1NC2=NC(=NC=C2Cl)NC3=C(C=C(C=C3)N4CCOCC4)OC
How it was run: as §1

encorafenib = compound: COC(=O)N[C@@H](C)CNc1nccc(-c2cn(C(C)C)nc2-c2cc(Cl)cc(NS(C)(=O)=O)c2F)n1 [encorafenib]
How it was run: as §1

[3] = compound: COC(=O)[C@H](CCSC)NC(=O)C1=C(C=C(C=C1)NC[C@H](CS)N)C2=CC=CC=C2
How it was run: as §1

[4] = compound: CCCS(=O)(=O)Nc1ccc(F)c(C(=O)c2c[nH]c3ncc(Cl)cc23)c1F
How it was run: as §1

volasertib = compound: CC[C@@H]1C(=O)N(C)c2cnc(Nc3ccc(C(=O)N[C@H]4CC[C@H](N5CCN(CC6CC6)CC5)CC4)cc3OC)nc2N1C(C)C [volasertib]
How it was run: as §1

[5] = compound: CCn1c(C(=O)N(C2CC2)C2CC2)cc2c3c(ncn3C)c(Nc3cc(C)n(C)n3)nc21
How it was run: as §1

[6] = compound: CCn1cc(-c2ccnc3[nH]c(-c4cccc(CN(C)C)c4)cc23)c(-c2ccc(NC(=O)N(C)C)cc2)n1
How it was run: as §1

[7] = compound: CN1CCC(CNc2ccc3ncc(-c4cccc(OC(F)(F)F)c4)n3n2)CC1
How it was run: as §1

saracatinib = compound: CN1CCN(CCOc2cc(OC3CCOCC3)c3c(Nc4c(Cl)ccc5c4OCO5)ncnc3c2)CC1 [saracatinib]
How it was run: as §1

sotrastaurin = compound: CN1CCN(c2nc(C3=C(c4c[nH]c5ccccc45)C(=O)NC3=O)c3ccccc3n2)CC1 [sotrastaurin]
How it was run: as §1

alvocidib = compound: CN1CC[C@H](c2c(O)cc(O)c3c(=O)cc(-c4ccccc4Cl)oc23)[C@H](O)C1 [alvocidib]
How it was run: as §1

Tubastatin A = compound: CN1CCc2c(c3ccccc3n2Cc2ccc(C(=O)NO)cc2)C1 [Tubastatin A]
How it was run: as §1

[8] = compound: CNc1nc(-c2ccc3c(N)n[nH]c3c2)cc(N2C[C@@H](C(=O)NC3CCCCC3)CC[C@H]2C)n1
How it was run: as §1

alisertib = compound: COc1cc(Nc2ncc3c(n2)-c2ccc(Cl)cc2C(c2c(F)cccc2OC)=NC3)ccc1C(=O)O [alisertib]
How it was run: as §1

[9] = compound: COc1cc2nc(-c3cc(F)ccc3O)nc(N[C@@H]3CNC[C@H]3C(C)(C)O)c2cc1OC
How it was run: as §1

gefitinib = compound: COc1cc2ncnc(Nc3ccc(F)c(Cl)c3)c2cc1OCCCN1CCOCC1 [gefitinib]
How it was run: as §1

barasertib = compound: CCN(CCCOc1ccc2c(Nc3cc(CC(=O)Nc4cccc(F)c4)[nH]n3)ncnc2c1)CCOP(=O)(O)O [barasertib]
How it was run: as §1

Measured: log2 fold change

HLA-E (UniProt P13747)
inactive: [1] 0.053 | [2] 0.123 | encorafenib -0.049 | [3] -0.012

HMGA1 isoform 2 (UniProt P17096)
inactive: [4] 0.019 | volasertib 0.034 | [5] 0.027 | [7] -0.339 | saracatinib 0.053 | sotrastaurin -0.106 | alvocidib 0.289 | Tubastatin A 0.102 | [2] 0.085 | [8] 0.034 | alisertib -0.255 | [9] -0.038 | gefitinib -0.442
active: [6] 0.875

HLA-DRA
inactive: [1] 0.139 | encorafenib 0.074 | [3] 0.001

HSP90AA2P (UniProt Q14568)
inactive: [1] 0.085 | sotrastaurin 0.119 | encorafenib 0.044 | [3] -0.07

HES1 (UniProt Q14469)
inactive: [4] 0.066 | [1] -0.129 | volasertib 0.022 | [5] 0.526 | [6] 0.281 | [7] 0.106 | saracatinib -0.224 | alvocidib -0.223 | Tubastatin A 0.066 | [2] -0.053 | [8] 0.08 | encorafenib -0.133 | [3] 0.213 | alisertib -0.062 | [9] 0.159 | gefitinib -0.125

Reprinted from the results shown (two entries):
HLA-DRA
inactive: [1] 0.139 | encorafenib 0.074 | [3] 0.001

HSP90AA2P (UniProt Q14568)
inactive: [1] 0.085 | sotrastaurin 0.119 | encorafenib 0.044 | [3] -0.07

Later entries

HOOK1 (UniProt Q9UJC3)
inactive: [6] -0.558 | [7] 0.182 | saracatinib 0.046 | alvocidib -0.224 | [2] 0.088 | [8] 0.011

HGFAC (UniProt Q04756)
inactive: [6] 0.085 | [7] 0.052 | alvocidib -0.119 | alisertib -0.114 | gefitinib -0.04

HNRNPC isoform 2 (UniProt P07910)
inactive: saracatinib 0.015 | [8] 0.098

HINFP (UniProt Q9BQA5)
inactive: sotrastaurin 0.046 | alisertib 0.118 | gefitinib 0.035

HPGD (UniProt P15428)
inactive: [1] 0.05 | [6] -0.08 | [7] 0.015 | saracatinib -0.103 | alvocidib -0.09 | [8] 0.196 | encorafenib -0.013 | [3] 0.169

HMGN5 (UniProt Q5JSK9)
inactive: [4] -0.013 | barasertib -0.03 | [1] 0.039 | volasertib 0.054 | encorafenib 0.055 | [3] -0.111 | alisertib 0.049 | [9] 0.055 | gefitinib 0.063

HIGD1A isoform 2 (UniProt Q9Y241)
inactive: [4] -0.165 | volasertib 0.064 | [5] -0.013 | [6] -0.222 | [7] -0.127 | saracatinib 0.115 | alvocidib 0.022 | Tubastatin A -0.007 | [2] 0.143 | [8] 0.174 | [9] 0.154

HP (UniProt P00738)
inactive: [5] -0.104 | [6] 0.869 | [7] -0.73 | saracatinib -0.106 | alvocidib -0.073 | Tubastatin A 0.061 | [8] -0.215

HMX3 (UniProt A6NHT5)
inactive: [2] 0.035

HNRNPUL1 (UniProt M0R247)
inactive: barasertib 0.109 | [6] 0.004 | [7] 0.037 | alvocidib -0.042 | [2] -0.03

HMGXB3 (UniProt Q12766)
inactive: [1] 0.018 | encorafenib -0.029 | [3] 0

HS6ST1 (UniProt O60243)
inactive: [2] -0.05

HRAS (UniProt P01112)
inactive: [4] 0.008 | [1] 0.078 | volasertib -0.041 | [5] -0.068 | saracatinib -0.008 | sotrastaurin -0.037 | Tubastatin A 0.156 | [2] 0.056 | [8] 0.084 | encorafenib 0.007 | [3] -0.111 | alisertib 0.074 | [9] -0.035 | gefitinib 0.046
